# Source: the supplement of paper PMC11732987, “Enantioselective OTUD7B fragment discovery through chemoproteomics screening and high-throughput optimisation” (Communications Chemistry, 2025)
# The other results are listed elsewhere or left out. The data scatter; read single values as rough.
# Biological target: SARS1 C162 (UniProt Q5T5C7)
# Assay: log2 mean competition ratio of IA-DTB cysteine labelling (DMSO/compound) (log2 ratio); higher = stronger cysteine engagement by compound
# Settings: 50 µM; treatment time: 4 h; cell line lysate: HEK293T
# Procedure: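 IA-DTB competitive cysteine chemoproteomics in HEK293T RIPA lysate. Lysates were treated with compound 29 or 30 at 50 or 200 µM for 4 h, then IA-DTB (500 µM, 1 h), trypsin-digested, NeutrAvidin-enriched and analysed by diaPASEF. Competition ratio = intensity DMSO / intensity compound (n=4 treated, n=64 DMSO); binding: mean log2 CR ≥ 1 and p ≤ 0.05 plus QC filters. Target is the cysteine site.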
row,SMILES,log2 mean competition ratio
1,O=C(CCl)N[C@H]1CCCc2ccccc21,0.462
2,O=C(CCl)N[C@@H]1CCCc2ccccc21,0.202

# Same assay, conditions: 200 µM; treatment time: 4 h; cell line lysate: HEK293T
row,SMILES,log2 mean competition ratio
1,O=C(CCl)N[C@H]1CCCc2ccccc21,0.0736
2,O=C(CCl)N[C@@H]1CCCc2ccccc21,-0.264
